Laboratory results published in PMC11990924, “Inhibition of Tyrosinase and Melanogenesis by Carboxylic Acids: Mechanistic Insights and Safety Evaluation” (Molecules, 2025).

Test system: B16-F10 cells
Experiment: Proteomic analysis of B16-F10 cells (DIA mass spectrometry)
Assay type: cell-based, mouse
Details: fold change ≥ 2
Method: B16-F10 cells were treated with various concentrations of carboxylic acids following the same culture protocol used for melanin inhibition assays. After treatment, the cells were collected and submitted to Shanghai Zhongke Xinming Biotechnology Co., Ltd. (Shanghai, China) for proteomics analysis. The collected cells were lysed with an appropriate volume of SDT lysis buffer (4% SDS, 100 mM Tris-HCl, pH 7.6) to extract proteins. DTT was added to reduce disulfide bonds, followed by incubation at room temperature for 1 h. Subsequently, iodoacetamide was added, and the mixture was reacted in the dark at room temperature for 30 min. The proteins were then digested with trypsin overnight. The resulting peptide fragments were desalted using a C18 cartridge. After freeze-drying, the peptides were resuspended in 40 μL of 0.1% formic acid solution, and the peptide concentration was determined by measuring the absorbance at 280 nm. An appropriate amount of internal reference for targeted proteomics (iRT) standard peptides was added to each sample for data-independent acquisition (DIA) mass spectrometry analysis. Chromatographic separation was performed using a nanoflow Evosep One system. The separated samples were analyzed by DIA mass spectrometry using a timsTOF Pro mass spectrometer (Bruker Daltonics, Bremen, Germany). Detection was conducted in positive-ion mode, with MS and MS/MS scanning ranges set from 100 to 1700 m/z. MS2 data acquisition was performed in DIA mode, with four TIMS scan windows, each accumulating for 100 ms. In PASEF mode, the collision energy varied linearly with ion mobility (1/K0), ranging from 20 to 59 eV for ions with 1/K0 values between 0.85 and 1.30 Vs/cm^2. The DIA data were processed using Spectronaut 19 software with the following parameter settings: retention time prediction type set to dynamic iRT, interference correction on MS2 level enabled, cross-run normalization enabled, maximum missed cleavage sites set to 2, fixed modification set to Carbamidomethyl (C), and variable modifications set to Oxidation (M) and Acetyl (Protein N-term). All results were filtered with a Q-value cutoff of 0.01, corresponding to a false discovery rate (FDR) of less than 1%. The target protein set was annotated using Blast2GO (version BLASTP 2.8.0+). The process included four steps: sequence alignment (Blast), GO mapping, GO annotation, and additional annotation augmentation using InterProScan. Using the KOBAS 3.0 software, KEGG pathway annotation was performed on the target protein set. Fisher’s exact test was employed to compare the distribution of GO categories in the target protein set and the overall protein set, thereby conducting enrichment analysis of the GO annotations in the target protein set. The proteomics dataset generated in this study has been made publicly available through the PRIDE ProteomeXchange Consortium with the dataset identifier PXD061919.

| Structure (SMILES) | number of downregulated proteins (6 mM) | number of upregulated proteins (6 mM) | number of downregulated proteins (12 mM) | number of upregulated proteins (12 mM) |
| --- | --- | --- | --- | --- |
| O=C(O)[C@@H]1CCC(O)=N1 [L-pyroglutamic acid] | 32 | 9 | – | – |
| O=C(O)CC(O)C(=O)O (stereo not shown) [malic acid] | – | 14 | – | – |
| CC(O)C(=O)O (stereo not shown) [lactic acid] | – | – | 61 | 23 |
| O=C(O)C(O)Cc1ccccc1 (stereo not shown) [3-phenyllactic acid] | 83 | 24 | – | – |
